From US20260115205A1, “ON DEMAND FEMALE CONTRACEPTIVE” (priority 2021, published 2026)
Where two headings read alike, the source gives them in different places. At least one structure is not confirmed: it was looked up by name or label, or the drawing left a doubt.

Columns and labels:
[1] = test system: normal women; settings: cited from earlier work; for delay in LH surge / reduction in peak serum LH level / subsequent delay in ovulation: single dose taken prior to the LH surge; for delay of follicle rupture based on ultrasound: alone for five days, normal women with an 18 mm follicle
[2] = test system: women; settings: cited from earlier work
[3] = test system: normal menstruating women; assay: Pilot study of MEL 15 mg for 5 days in 3 normal menstruating women; assay type: in vivo, human
Procedure: A pilot study was performed using MEL 15 mg for 5 days in 3 normal menstruating women with a control no treatment but monitored cycle and a treatment cycle. Treatment was initiated when the participant was within one day of anticipated LH surge based on the control cycle.

[4] = test system: monkeys; settings: cited from earlier work; for efficacy in model of emergency contraception: alone for five days

## C#C[C@]1(O)CC[C@H]2[C@@H]3CCC4=CC(=O)CC[C@@H]4[C@H]3CC[C@@]21CC [Levonorgestrel, levonorgestrel]
[1]; human, in vivo
  effect on LH dynamics after the onset of the surge: no effect
[1]; single dose given when maximum follicle diameter was 17 mm, 10 participants
  women with ovulation delayed for 5 days: 50%
[1]
  delay in LH surge / reduction in peak serum LH level: two
  subsequent delay in ovulation: five
[1]; listed as LNG
  delay in LH surge / reduction in peak serum LH level: 2 days
  subsequent delay in ovulation: 5 days
[1]; listed as levonorgestrel (LNG)
  delay in LH surge / reduction in peak serum LH level: two
  subsequent delay in ovulation: 5 days
[1]; single dose, follicle diameter ≥18 mm, 31 women
  women with follicle rupture delayed for 5 days: 16%
[1]; taken when ovarian follicle reached mean diameter of 18 mm
  effect on delaying follicle rupture compared to placebo: limited to no effect
[2]; 1.5 mg emergency contraceptive
  efficacy after 72 hours following intercourse or if taken after onset of LH surge: ineffective
[2]; 1.5 mg used alone with infrequent intercourse
  Pregnancies/100 woman/year: 11.7
[2]; used alone, women reporting six or fewer acts of intercourse per month
  Pearl Index: 11.5 pregnancies per 100 women years of use

## Cc1cnc(NC(=O)C2=C(O)c3ccccc3S(=O)(=O)N2C)s1 [Meloxicam, meloxicam]
[3]; 3 women
  participants with delay in the rise of serum progesterone: 2 of 3
[3]; started within one day of anticipated LH surge, serum LH surge as anchor
  delay in the rise of serum progesterone: three
[4]; listed as MEL
  efficacy in model of emergency contraception: highly effective
[4]
  efficacy in model of emergency contraception: effective
  prevention of pregnancy when taken daily with frequent/daily intercourse: ineffective
[1]
  delay of follicle rupture based on ultrasound: five
[1]; listed as MEL
  delay of follicle rupture based on ultrasound: 5 days
[1]; human, in vivo
  effect on the LH surge: no effect
[1]; taken daily for five days
  normal women with ovulation inhibited: 27%
  occurrence of an unruptured follicle for 6 days following treatment: 23%
